Reference: article PMC3429460
Results are given in words; binding and its absence hold for the method and conditions named. In cells and extracts the contact can be indirect. Some results given as binding are weak or reduced against the parent protein; the word gives no strength.

Amino acid sequences for entries named in this document (tags omitted). A change or cut given only in a name is not applied to a line headed by its entry.
UniProt P70605: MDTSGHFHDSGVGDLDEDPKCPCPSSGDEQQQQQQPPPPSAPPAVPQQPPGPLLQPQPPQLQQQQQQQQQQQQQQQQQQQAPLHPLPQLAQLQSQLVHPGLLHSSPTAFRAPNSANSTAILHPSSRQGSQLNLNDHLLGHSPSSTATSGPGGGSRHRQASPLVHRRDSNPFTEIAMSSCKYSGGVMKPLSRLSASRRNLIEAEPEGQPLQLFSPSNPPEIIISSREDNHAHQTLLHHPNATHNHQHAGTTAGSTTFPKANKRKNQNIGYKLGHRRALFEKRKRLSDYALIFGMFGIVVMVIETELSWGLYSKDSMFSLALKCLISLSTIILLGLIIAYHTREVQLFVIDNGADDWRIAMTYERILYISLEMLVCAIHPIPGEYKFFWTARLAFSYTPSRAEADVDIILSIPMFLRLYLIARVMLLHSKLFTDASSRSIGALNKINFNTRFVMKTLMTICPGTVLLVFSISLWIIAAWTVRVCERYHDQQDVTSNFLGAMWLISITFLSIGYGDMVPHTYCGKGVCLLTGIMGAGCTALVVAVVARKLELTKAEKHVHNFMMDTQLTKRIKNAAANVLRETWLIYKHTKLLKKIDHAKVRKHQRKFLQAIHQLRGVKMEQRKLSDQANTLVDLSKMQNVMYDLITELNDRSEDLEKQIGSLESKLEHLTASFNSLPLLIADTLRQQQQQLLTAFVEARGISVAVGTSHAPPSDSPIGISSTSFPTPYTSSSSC
UniProt Q03135: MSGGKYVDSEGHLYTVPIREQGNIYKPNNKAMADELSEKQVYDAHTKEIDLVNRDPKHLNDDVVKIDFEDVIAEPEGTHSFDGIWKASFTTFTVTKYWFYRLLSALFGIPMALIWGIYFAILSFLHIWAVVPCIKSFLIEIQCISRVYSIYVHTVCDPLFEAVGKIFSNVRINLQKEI
UniProt P20339: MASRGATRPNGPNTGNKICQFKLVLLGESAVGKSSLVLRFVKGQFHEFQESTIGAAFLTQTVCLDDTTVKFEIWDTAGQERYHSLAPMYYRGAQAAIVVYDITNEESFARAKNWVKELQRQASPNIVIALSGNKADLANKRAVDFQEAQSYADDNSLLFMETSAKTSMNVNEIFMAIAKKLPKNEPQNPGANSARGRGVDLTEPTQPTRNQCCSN

How the values were obtained:
myc-tagged KCa2.3 = myc-tagged KCa2.3 (UniProt P70605); test: co-IP; HEK293 cells co-transfected; myc-KCa2.3 immunoprecipitated with anti-myc Ab (anti-V5 Ab as IgG control), protein G-agarose, immunoblot with anti-GFP Ab (dynamin II) or anti-Rab5 Ab
GFP-tagged caveolin-1 = GFP-tagged caveolin-1 (UniProt Q03135); test: co-IP; HEK293 cells co-transfected; caveolin-1 immunoprecipitated with anti-GFP Ab (anti-V5 Ab as IgG control), protein G-agarose, immunoblot with anti-KCa2.3 Ab

Row | Substance | binding (myc-tagged KCa2.3) | binding (GFP-tagged caveolin-1)
1 | DsRed-tagged Q79L Rab5 (GTP-bound, dominant active) (from UniProt P20339 1-215) | binds | 
2 | DsRed-tagged S34N Rab5 (GDP-bound, dominant negative) (from UniProt P20339 1-215) | no binding | 
3 | DsRed-tagged WT Rab5 (from UniProt P20339 1-215) | no binding | 
4 | KCa2.3 (small conductance, Ca2+-activated K+ channel), construct of the caveolin-1 co-IP (from UniProt P70605 1-732) |  | binds
